Experimental data: PubChem BioAssay AID652243 (Drosophila RNAi Screening Center, 2013)
The deposit covers about 24,000 reagents; below is a random part of those that have a named target and a result. In the full data, 246 (1%) got an active call. 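Plates not normalised; calls are printed but the firefly/Renilla ratio behind them is not deposited; fold cut for lowering reported inconsistently.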 The raw values are shown without normalisation. The numbers tell different reagents against one gene apart. Names joined by + are all predicted targets of the reagent. No sequences are given here. Not given: the amount of reagent.

- Purpose: 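Fly regulators of androgen-dependent reporter output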 (primary screen)
- Cells: Drosophila S2R+ cells
- Knock-down reagent: long dsRNA against Drosophila genes
- Duration: 72 h (48 h, then 24 h hormone)
- Treatment: synthetic androgen R1881 at 10 nM for 24 h
- Measured: 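Per-well raw luminescence of the androgen-driven firefly reporter and of the Renilla control, two replicates each, without normalisation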
- Direction: firefly reporter light: higher = more light from androgen-responsive reporter; Renilla control light: higher = more constitutive control signal (cell number, transfection)
- Hit rule: 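Across duplicate plates, a knock-down whose log firefly/Renilla ratio shifted a set fold down or up from the GFP/LacZ control mean was a hit; the downward cut appears as both 1.5 and 3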
- Calls: active = hit: reporter lowered or raised; inactive = no hit

Gene	reagent no.	firefly reporter light, replicate 1	firefly reporter light, replicate 2	Renilla control light, replicate 1	Renilla control light, replicate 2	activity call
Spn31A	1	89757	1.35e5	1.06e6	1.17e6	inactive
Spn31A	2	9.18e5	6.42e5	1.26e6	1.18e6	inactive
CG13476	1	2.37e5	2.15e5	1.74e6	1.43e6	inactive
CG12862	1	88322	1.23e5	1.37e6	1.37e6	inactive
Sprn	1	2.16e5	1.49e5	2.13e6	1.74e6	inactive
gcm	1	1.42e5	81934	1.41e6	9.11e5	inactive
Pgant3	1	7.99e5	8.27e5	1.23e6	1.55e6	inactive
Pgant3	2	3.57e5	4.27e5	9.14e5	9.88e5	inactive
Fbl6	1	5.32e5	5.66e5	6.30e5	7.79e5	inactive
Fbl6	2	9.23e5	8.67e5	1.74e6	1.26e6	inactive
CG17230	1	90846	74076	6.25e5	5.60e5	inactive
CG17230	2	1.97e5	2.28e5	4.85e5	5.66e5	inactive
CG16782	1	2.00e5	1.80e5	3.17e6	2.84e6	inactive
CG6479	1	45582	17603	3.22e5	1.95e5	inactive
CG9630	1	68020	34341	6.27e5	3.13e5	inactive
Tina-1	1	1.30e6	1.24e6	1.75e6	2.10e6	inactive
CG9920	1	1.62e5	2.00e5	2.65e6	2.36e6	inactive
Sas-4	1	66330	1.84e5	1.84e6	2.51e6	inactive
Prosap	1	82197	1.11e5	1.36e6	1.36e6	inactive
Prosap	2	1.03e6	1.07e6	2.12e6	2.19e6	inactive
CG1578	1	1.31e5	1.04e5	8.73e5	8.25e5	inactive
CG1578	2	3.61e5	3.33e5	5.63e5	5.99e5	inactive
CG5746	1	1.20e5	89149	6.59e5	6.86e5	inactive
CG5746	2	5.07e5	6.14e5	8.06e5	8.37e5	inactive
nsr	1	4.57e5	2.66e5	1.20e6	9.62e5	inactive
nsr	2	3.96e5	8.09e5	7.62e5	1.67e6	inactive
CG11961	1	4.15e5	5.82e5	4.94e5	4.64e5	inactive
CG5151	1	8.28e5	7.42e5	1.39e6	1.38e6	inactive
CG5151	2	7.64e5	5.27e5	7.98e5	9.07e5	inactive
CG5151	3	3.69e5	6.02e5	1.50e6	2.27e6	inactive
dpr5	1	31163	66441	8.18e5	7.03e5	inactive
dpr5	2	4.57e5	4.03e5	5.73e5	6.07e5	inactive
Dic4	1	2.87e5	2.11e5	2.67e6	2.87e6	inactive
gus	1	1.20e6	6.65e5	2.97e6	2.04e6	inactive
gus	2	4.25e5	4.44e5	2.38e6	2.82e6	inactive
gus	3	3.53e5	2.70e5	7.24e5	7.03e5	inactive
CG15482	1	1.98e5	2.49e5	1.34e6	1.40e6	inactive
CG42809	1	2.55e5	3.02e5	1.49e6	1.85e6	inactive
CG14868	1	3.83e5	2.74e5	2.82e6	2.94e6	inactive
CG14868	2	2.10e5	1.96e5	5.37e5	8.66e5	inactive
CG12391	1	7.60e5	8.65e5	1.73e6	1.67e6	inactive
Atg10 + CG18853 + CG12822	1	4.00e5	3.35e5	2.94e5	2.70e5	inactive
CG42729	1	2.21e5	2.27e5	1.48e6	1.99e6	inactive
RabGGTa	1	59599	38582	4.34e5	2.55e5	inactive

Next part; the last 10 above are carried over.
Gene	reagent no.	firefly reporter light, replicate 1	firefly reporter light, replicate 2	Renilla control light, replicate 1	Renilla control light, replicate 2	activity call
gus	2	4.25e5	4.44e5	2.38e6	2.82e6	inactive
gus	3	3.53e5	2.70e5	7.24e5	7.03e5	inactive
CG15482	1	1.98e5	2.49e5	1.34e6	1.40e6	inactive
CG42809	1	2.55e5	3.02e5	1.49e6	1.85e6	inactive
CG14868	1	3.83e5	2.74e5	2.82e6	2.94e6	inactive
CG14868	2	2.10e5	1.96e5	5.37e5	8.66e5	inactive
CG12391	1	7.60e5	8.65e5	1.73e6	1.67e6	inactive
Atg10 + CG18853 + CG12822	1	4.00e5	3.35e5	2.94e5	2.70e5	inactive
CG42729	1	2.21e5	2.27e5	1.48e6	1.99e6	inactive
RabGGTa	1	59599	38582	4.34e5	2.55e5	inactive
BigH1	1	41062	84902	4.70e5	8.14e5	inactive
BigH1	2	2.36e5	2.19e5	3.33e5	6.34e5	inactive
niki	1	2.60e5	3.39e5	3.03e6	2.90e6	inactive
niki	2					inactive
niki	3					inactive
CG5043	1	1.12e5	94608	1.39e6	1.15e6	inactive
CG5043	2	5.08e5	7.02e5	7.12e5	8.01e5	inactive
Nubp1	1	1.05e6	1.02e6	1.73e6	1.60e6	inactive
CG32085	1	3.11e5	3.17e5	3.23e6	2.54e6	inactive
CG32085	2	2.15e5	2.34e5	2.65e6	2.01e6	inactive
CG32085	3	1.33e5	1.14e5	1.78e6	1.49e6	inactive
CG17271	1	3.90e5	3.45e5	3.16e6	3.20e6	inactive
CG17271	2	8.21e5	1.11e6	1.93e6	1.99e6	inactive
CG17271	3	4.67e5	3.04e5	9.86e5	6.38e5	inactive
MED14	1	3.14e5	1.80e5	9.03e5	4.90e5	inactive
MED14	2	1.27e5	1.94e5	4.90e5	3.74e5	inactive
qkr58E-1	1	7.22e5	5.66e5	7.50e5	9.40e5	inactive
qkr58E-1	2	4.50e5	3.57e5	5.02e5	5.75e5	inactive
Gmap	1	54743	1.03e5	5.98e5	6.98e5	inactive
Gmap	2	5.81e5	5.09e5	2.55e6	2.77e6	inactive
Gmap	3	3.37e5	2.55e5	8.93e5	8.93e5	inactive
CG14015	1	77969	56853	9.42e5	6.76e5	inactive
CG14015	2	2.66e5	2.69e5	6.78e5	7.24e5	inactive
CG7408	1	1.60e5	2.11e5	1.87e6	1.98e6	inactive
mld	1	15871	14901	78153	1.06e5	inactive
mld	2	79120	86132	4.50e5	4.81e5	inactive
mld	3	7.66e5	6.82e5	8.95e5	9.96e5	inactive
CG11333	1	3.44e5	3.73e5	2.90e6	4.05e6	inactive
Coq7 + shf	1	1.24e5	1.96e5	2.49e6	2.49e6	inactive
CG32727	1	7.04e5	6.64e5	1.11e6	1.14e6	inactive
